Results from the supplement of paper PMC7666118.
Some of the results follow.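 Rule for the calls: active = dose-dependent thermal stabilisation significant by F-test of dose-response against flat model at 10% FDR; inactive = not significant.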

By UniProt entry, the sequences of proteins in these tests, tags left out. Where a name states a change or a piece, a line headed by the entry shows the natural chain unless it says otherwise.
UniProt Q9Y2L1: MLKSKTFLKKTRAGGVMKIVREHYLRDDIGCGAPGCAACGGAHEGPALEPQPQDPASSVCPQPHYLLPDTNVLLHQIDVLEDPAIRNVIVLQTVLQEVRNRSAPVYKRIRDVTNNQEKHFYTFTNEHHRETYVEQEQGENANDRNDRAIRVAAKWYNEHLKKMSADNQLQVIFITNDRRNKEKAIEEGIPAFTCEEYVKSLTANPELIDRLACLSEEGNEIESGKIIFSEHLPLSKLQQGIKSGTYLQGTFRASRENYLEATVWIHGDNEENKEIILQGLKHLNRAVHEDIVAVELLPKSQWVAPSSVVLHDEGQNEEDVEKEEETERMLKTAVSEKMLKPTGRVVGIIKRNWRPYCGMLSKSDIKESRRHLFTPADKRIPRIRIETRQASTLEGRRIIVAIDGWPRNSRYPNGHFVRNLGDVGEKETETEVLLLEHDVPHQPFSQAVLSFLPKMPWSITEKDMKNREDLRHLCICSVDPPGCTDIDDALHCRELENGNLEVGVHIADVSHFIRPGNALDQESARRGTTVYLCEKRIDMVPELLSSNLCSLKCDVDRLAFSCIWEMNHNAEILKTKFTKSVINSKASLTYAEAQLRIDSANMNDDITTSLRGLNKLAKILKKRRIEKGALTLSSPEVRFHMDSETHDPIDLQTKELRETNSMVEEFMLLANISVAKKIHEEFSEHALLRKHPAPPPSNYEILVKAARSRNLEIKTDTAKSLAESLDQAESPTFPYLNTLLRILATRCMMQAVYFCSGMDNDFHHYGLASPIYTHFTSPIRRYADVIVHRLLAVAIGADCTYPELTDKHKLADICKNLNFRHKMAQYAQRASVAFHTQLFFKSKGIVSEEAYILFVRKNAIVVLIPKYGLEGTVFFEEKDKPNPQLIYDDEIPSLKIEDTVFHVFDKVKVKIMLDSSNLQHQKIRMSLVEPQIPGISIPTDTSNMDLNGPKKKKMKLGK
UniProt Q9Y6V7: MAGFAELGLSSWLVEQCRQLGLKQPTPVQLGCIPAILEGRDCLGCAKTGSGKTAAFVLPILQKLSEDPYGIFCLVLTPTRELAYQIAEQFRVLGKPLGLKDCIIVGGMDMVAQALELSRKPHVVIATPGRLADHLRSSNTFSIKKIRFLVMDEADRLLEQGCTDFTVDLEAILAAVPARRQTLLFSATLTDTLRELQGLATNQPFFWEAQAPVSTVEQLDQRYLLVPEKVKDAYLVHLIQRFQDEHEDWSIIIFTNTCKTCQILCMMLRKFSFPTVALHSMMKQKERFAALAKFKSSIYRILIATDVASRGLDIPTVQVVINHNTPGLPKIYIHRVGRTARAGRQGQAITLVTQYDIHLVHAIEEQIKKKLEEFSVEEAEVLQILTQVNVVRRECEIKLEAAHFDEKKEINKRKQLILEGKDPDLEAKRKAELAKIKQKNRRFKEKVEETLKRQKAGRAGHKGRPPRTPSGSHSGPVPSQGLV
UniProt Q92793, whole entry, looked up: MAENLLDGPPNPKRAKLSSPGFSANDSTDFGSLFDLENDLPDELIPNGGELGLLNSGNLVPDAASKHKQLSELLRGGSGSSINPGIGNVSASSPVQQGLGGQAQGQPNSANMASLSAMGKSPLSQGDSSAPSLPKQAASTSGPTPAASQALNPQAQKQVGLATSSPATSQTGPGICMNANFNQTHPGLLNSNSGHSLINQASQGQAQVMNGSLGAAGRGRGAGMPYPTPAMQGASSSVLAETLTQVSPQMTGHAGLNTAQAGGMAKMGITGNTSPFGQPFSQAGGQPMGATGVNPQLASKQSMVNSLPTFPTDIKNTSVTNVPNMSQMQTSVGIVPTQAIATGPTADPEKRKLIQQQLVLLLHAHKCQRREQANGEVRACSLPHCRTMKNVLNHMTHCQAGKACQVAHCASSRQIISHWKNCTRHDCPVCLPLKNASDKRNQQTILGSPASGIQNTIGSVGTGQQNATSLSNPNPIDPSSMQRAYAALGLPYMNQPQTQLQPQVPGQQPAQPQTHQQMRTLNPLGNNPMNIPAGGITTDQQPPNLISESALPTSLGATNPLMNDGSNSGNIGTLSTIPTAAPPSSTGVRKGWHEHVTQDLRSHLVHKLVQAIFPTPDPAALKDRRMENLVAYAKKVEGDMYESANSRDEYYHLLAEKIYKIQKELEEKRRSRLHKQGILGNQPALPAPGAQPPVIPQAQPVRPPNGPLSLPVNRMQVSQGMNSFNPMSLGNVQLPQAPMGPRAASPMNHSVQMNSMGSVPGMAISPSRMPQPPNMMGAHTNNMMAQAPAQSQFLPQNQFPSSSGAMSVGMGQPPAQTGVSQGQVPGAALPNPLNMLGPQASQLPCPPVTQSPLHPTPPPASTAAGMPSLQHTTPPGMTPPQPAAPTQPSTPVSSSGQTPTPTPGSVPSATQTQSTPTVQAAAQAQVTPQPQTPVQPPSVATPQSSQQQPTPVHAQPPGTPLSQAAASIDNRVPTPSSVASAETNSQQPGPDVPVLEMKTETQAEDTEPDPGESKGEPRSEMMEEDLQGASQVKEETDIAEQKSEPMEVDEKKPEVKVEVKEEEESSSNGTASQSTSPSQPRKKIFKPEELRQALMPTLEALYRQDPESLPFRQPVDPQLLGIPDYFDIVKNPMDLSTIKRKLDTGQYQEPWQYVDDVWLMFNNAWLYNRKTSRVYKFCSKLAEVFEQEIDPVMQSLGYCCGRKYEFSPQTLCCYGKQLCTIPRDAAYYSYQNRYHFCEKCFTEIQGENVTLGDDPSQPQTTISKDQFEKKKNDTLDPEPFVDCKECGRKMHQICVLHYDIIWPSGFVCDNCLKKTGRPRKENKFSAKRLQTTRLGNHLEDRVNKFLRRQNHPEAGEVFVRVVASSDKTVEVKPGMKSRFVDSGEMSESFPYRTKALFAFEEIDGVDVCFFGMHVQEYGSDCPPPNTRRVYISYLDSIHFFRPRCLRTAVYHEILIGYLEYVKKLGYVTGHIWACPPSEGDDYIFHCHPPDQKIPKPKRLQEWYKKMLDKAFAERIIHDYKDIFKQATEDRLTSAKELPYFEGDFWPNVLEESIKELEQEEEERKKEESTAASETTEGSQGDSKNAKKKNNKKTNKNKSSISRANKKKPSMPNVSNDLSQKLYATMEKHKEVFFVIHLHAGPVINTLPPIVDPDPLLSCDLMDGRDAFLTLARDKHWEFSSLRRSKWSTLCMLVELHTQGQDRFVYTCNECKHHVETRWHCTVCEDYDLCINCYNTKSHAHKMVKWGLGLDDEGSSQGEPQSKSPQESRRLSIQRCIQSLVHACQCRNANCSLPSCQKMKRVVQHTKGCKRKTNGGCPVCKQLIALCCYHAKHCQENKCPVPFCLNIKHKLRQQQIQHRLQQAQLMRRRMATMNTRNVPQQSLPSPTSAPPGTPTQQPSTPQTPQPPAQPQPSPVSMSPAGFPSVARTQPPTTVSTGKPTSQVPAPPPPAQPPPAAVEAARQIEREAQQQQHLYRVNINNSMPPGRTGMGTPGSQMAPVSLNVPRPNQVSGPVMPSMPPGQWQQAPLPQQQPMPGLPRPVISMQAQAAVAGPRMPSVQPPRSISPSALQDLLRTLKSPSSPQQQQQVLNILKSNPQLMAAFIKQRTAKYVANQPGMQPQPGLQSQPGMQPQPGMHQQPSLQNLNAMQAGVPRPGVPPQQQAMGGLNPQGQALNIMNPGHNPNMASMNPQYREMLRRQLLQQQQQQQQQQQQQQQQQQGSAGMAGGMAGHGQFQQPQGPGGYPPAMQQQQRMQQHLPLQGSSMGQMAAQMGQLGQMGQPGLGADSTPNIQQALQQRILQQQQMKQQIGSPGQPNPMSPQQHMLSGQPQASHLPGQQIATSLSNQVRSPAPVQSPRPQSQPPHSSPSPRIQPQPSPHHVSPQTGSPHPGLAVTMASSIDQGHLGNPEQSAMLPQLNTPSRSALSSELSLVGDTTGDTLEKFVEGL
UniProt Q9UJU6: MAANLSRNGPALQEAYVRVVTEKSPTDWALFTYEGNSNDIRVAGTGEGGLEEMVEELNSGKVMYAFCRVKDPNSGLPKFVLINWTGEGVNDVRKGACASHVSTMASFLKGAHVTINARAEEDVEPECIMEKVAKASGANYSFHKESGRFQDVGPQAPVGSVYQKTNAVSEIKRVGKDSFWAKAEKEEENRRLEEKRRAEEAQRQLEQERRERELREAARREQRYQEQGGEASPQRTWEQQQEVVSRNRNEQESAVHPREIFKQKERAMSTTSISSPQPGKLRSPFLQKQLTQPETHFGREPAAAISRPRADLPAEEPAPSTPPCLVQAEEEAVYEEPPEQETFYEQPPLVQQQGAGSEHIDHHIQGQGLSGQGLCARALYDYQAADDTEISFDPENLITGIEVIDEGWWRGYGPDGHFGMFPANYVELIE
UniProt Q9NY33: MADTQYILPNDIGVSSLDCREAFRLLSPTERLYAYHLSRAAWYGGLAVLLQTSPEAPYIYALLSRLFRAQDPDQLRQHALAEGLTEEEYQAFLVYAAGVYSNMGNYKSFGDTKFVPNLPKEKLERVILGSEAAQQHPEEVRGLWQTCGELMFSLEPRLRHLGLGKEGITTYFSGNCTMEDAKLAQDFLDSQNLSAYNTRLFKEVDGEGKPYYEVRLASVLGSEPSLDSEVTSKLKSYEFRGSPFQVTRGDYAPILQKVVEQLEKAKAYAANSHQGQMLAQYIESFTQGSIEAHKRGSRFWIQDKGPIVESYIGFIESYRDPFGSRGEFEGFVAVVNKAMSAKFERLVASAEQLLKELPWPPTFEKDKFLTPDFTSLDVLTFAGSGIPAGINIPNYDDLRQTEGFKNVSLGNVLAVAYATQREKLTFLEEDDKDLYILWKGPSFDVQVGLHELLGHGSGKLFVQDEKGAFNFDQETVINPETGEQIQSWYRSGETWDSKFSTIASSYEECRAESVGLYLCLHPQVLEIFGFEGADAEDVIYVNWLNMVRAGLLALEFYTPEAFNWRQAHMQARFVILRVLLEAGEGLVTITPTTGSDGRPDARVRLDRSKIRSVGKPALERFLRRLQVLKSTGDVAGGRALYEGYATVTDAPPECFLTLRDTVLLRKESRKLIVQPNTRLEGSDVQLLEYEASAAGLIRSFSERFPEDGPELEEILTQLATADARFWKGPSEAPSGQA
UniProt P99999: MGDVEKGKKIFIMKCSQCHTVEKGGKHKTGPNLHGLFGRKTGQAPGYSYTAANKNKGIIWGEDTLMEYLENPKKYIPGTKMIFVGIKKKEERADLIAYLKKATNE
UniProt P60981: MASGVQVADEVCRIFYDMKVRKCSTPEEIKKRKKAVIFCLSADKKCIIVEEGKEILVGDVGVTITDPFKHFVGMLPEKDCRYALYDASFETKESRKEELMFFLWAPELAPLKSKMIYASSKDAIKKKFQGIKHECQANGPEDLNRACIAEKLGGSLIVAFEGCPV
UniProt Q58WW2: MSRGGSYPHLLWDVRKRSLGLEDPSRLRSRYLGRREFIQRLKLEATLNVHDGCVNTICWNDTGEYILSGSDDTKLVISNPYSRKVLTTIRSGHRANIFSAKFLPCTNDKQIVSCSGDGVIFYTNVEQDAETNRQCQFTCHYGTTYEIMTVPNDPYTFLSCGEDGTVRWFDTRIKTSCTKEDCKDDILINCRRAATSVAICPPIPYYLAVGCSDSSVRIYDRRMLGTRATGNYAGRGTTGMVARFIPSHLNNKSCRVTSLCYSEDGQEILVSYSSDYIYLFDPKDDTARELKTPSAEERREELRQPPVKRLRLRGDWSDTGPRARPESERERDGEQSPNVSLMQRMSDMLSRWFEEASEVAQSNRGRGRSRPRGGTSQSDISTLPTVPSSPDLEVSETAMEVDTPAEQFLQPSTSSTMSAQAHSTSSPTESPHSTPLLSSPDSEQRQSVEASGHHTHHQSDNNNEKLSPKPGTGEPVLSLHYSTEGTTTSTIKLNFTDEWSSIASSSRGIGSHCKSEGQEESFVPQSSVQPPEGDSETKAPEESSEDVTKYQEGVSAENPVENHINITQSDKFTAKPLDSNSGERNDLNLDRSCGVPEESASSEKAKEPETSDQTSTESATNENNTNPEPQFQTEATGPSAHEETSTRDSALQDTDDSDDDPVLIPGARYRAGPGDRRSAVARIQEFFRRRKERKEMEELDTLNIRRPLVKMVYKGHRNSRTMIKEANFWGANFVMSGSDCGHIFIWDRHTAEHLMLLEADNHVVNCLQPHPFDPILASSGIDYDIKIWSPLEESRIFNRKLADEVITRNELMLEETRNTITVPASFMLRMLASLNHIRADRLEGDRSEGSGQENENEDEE

Compound: Nc1nc2c(ncn2[C@@H]2O[C@H](COP(=O)(O)OP(=O)(O)OP(=O)(O)O)[C@@H](O)[C@H]2O)c(=O)[nH]1
Experiment: dose-dependent thermal stabilisation call (2D-TPP, DLPTP, 10% FDR) (binary (1 = stabilised)); higher = stabilised by the compound
Details: system: Jurkat gel-filtered lysate; concentration range 1-500 µM

Row | Target | dose-dependent thermal stabilisation call
1 | DIS3 (UniProt Q9Y2L1) | inactive: 0
2 | DPYSL2 (UniProt Q16555) | inactive: 0
3 | DDX49 (UniProt Q9Y6V7) | active: 1
4 | CREBBP (UniProt Q92793) | inactive: 0
5 | DBNL (UniProt Q9UJU6) | inactive: 0
6 | DPP3 (UniProt Q9NY33) | inactive: 0
7 | CYCS (UniProt P99999) | inactive: 0
8 | DSTN (UniProt P60981) | inactive: 0
9 | DCAF6 (UniProt Q58WW2) | inactive: 0
